# Assay results taken from PubChem BioAssay AID330 (DTP/NCI, 2004).
# The list is a part of this screen's results and no random one: it is rich in T/C values a quarter to a half above the control, in often repeated tests (any T/C) and in doses without a T/C. Further doses and runs are listed elsewhere. T/C gives the treated animals as a percentage of the vehicle group. Some entries give survivors of the animals treated and no T/C: the source files T/C as zero there, which appears to mark a toxic dose or a test without result, not a measured value. Some survivor counts are full or nearly so, which does not show that the dose was tolerated: survival well below the control is almost never listed, so the zero probably covers shortened survival too. Counts of survivors are from the toxicity check (mostly the fifth day) where no day follows; animals may have died later. Schedules are NCI's codes, taken here to give the interval after Q, in days (D) or hours (H), and the number of doses after X. Some doses were run more than once; the results are listed from low to high. Where survival is the endpoint, this PubChem deposit counts one and a half times the control or more as active, and values a quarter to a half above the control carry no call in these data; other NCI protocols may use other cut-offs.
# System: P388 leukemia ip, CD2F1 mice, survival T/C
# Test: NCI In Vivo Anticancer Drug Screen. Data for tumor model P388 Leukemia (intraperitoneal) in CD2F1 (CDF1) mice
# Conditions: T/C endpoint: median survival time, higher T/C = longer survival
# [1] = dose: 100.0 mg/kg/injection, schedule: Q01DX005 (ip), vehicle: saline with Tween-80
# [2] = dose: 200.0 mg/kg/injection, schedule: Q01DX005 (ip), vehicle: saline with Tween-80
# [3] = dose: 50.0 mg/kg/injection, schedule: Q01DX009 (ip), vehicle: Klucel (hydroxypropylcellulose) (HPC)
# [4] = dose: 100.0 mg/kg/injection, schedule: Q01DX009 (ip), vehicle: Klucel (hydroxypropylcellulose) (HPC)
# [5] = dose: 200.0 mg/kg/injection, schedule: Q01DX009 (ip), vehicle: Klucel (hydroxypropylcellulose) (HPC)
# [6] = dose: 120.0 mg/kg/injection, schedule: Q01DX005 (ip), vehicle: saline with Tween-80
# [7] = dose: 240.0 mg/kg/injection, schedule: Q01DX005 (ip), vehicle: saline with Tween-80
# [8] = dose: 25.0 mg/kg/injection, schedule: Q01DX009 (ip), vehicle: Klucel (hydroxypropylcellulose) (HPC)
# [9] = dose: 50.0 mg/kg/injection, schedule: Q01DX009 (ip), vehicle: saline
# [10] = dose: 100.0 mg/kg/injection, schedule: Q01DX009 (ip), vehicle: saline
# [11] = dose: 200.0 mg/kg/injection, schedule: Q01DX009 (ip), vehicle: saline
smiles,measurement,setting,value
CC1=Nc2ccccc2[S+](C)/C1=C(\[O-])c1ccccc1 (configuration not stated),survivor count,"dose: 50.0 mg/kg/injection, schedule: Q01DX005 (ip), vehicle: saline with Tween-80",0 of 6
same,survivor count,[1],0 of 6
same,survivor count,[2],0 of 6
CCC/C=C/C=C/C(=O)OC1C(C)C2(O)C3C=C(C)C(=O)C3CC(COC(C)=O)=CC2C2C(C)(C)C12OC(=O)C(C)C (configuration not stated),T/C,"dose: 4.0 mg/kg/injection, schedule: Q01DX005 (ip), vehicle: distilled water + Tween-80",138 and 143 % of control
same,survivor count,"dose: 8.0 mg/kg/injection, schedule: Q01DX005 (ip), vehicle: distilled water + Tween-80",0 of 5 and 3 of 5
same,survivor count,"dose: 8.0 mg/kg/injection, schedule: Q01DX005 (ip), vehicle: saline + alcohol",0 of 5
COc1ccc2c(c1)[nH]c1c(/C=C/c3ccc([N+](=O)[O-])cc3)nccc12,survivor count,"dose: 60.0 mg/kg/injection, schedule: Q01DX005 (ip), vehicle: Klucel (hydroxypropylcellulose) (HPC)",6 of 6
same,survivor count,"dose: 120.0 mg/kg/injection, schedule: Q01DX005 (ip), vehicle: Klucel (hydroxypropylcellulose) (HPC)",6 of 6
CC(/C=C/C(=O)NO)=C\C(C)C(=O)c1ccc(N(C)C)cc1 (configuration not stated),T/C,"dose: 2.19 mg/kg/injection, schedule: Q01DX009 (ip), vehicle: saline with Tween-80",130 % of control
same,T/C,"dose: 4.38 mg/kg/injection, schedule: Q01DX009 (ip), vehicle: saline with Tween-80",134 % of control
same,survivor count,"dose: 17.5 mg/kg/injection, schedule: Q01DX009 (ip), vehicle: Klucel (hydroxypropylcellulose) (HPC)",5 of 6
same,survivor count,"dose: 35.0 mg/kg/injection, schedule: Q01DX009 (ip), vehicle: Klucel (hydroxypropylcellulose) (HPC)",5 of 6
C[C@]12CCCC[C@@H]1CC[C@@H]1[C@@H]2[C@@H](O)C[C@@]2(C)[C@H]1CC[C@]2(C)O,survivor count,"dose: 400.0 mg/kg/injection, schedule: Q04DX003 (ip), vehicle: saline with Tween-80",1 of 6
Cc1cc([N+](=O)[O-])c(Cl)cc1NS(=O)(=O)c1ccccc1,survivor count,"dose: 200.0 mg/kg/injection, schedule: Q04DX003 (ip), vehicle: saline with Tween-80",5 of 6
C[n+]1ccc(CC(Cc2cc[n+](C)cc2)c2ccc(Br)cc2)cc1,survivor count,[3],0 of 6
same,survivor count,[4],0 of 6
same,survivor count,[5],0 of 6
Cc1ccc2cccc(OC(=O)Nc3ccc(C)c(NC(=O)Oc4cccc5ccc(C)nc45)c3)c2n1,survivor count,[6],3 of 6
same,survivor count,[7],0 of 6
c1cc2c(cn1)Sc1cnccc1N2,survivor count,"dose: 12.5 mg/kg/injection, schedule: Q01DX009 (ip), vehicle: distilled water + Tween-80",4 of 4
same,survivor count,"dose: 50.0 mg/kg/injection, schedule: Q01DX009 (ip), vehicle: distilled water + Tween-80",2 of 4
same,survivor count,"dose: 100.0 mg/kg/injection, schedule: Q01DX009 (ip), vehicle: distilled water + Tween-80",0 of 4
CNCC(CO)C(C)(C)C (configuration not stated),survivor count,"dose: 400.0 mg/kg/injection, schedule: Q04DX003 (ip), vehicle: saline",0 of 6
C=C1C(=O)OC2/C=C(\COC(C)=O)CCC(OC(C)=O)C3=CC(OC3=O)C12 (configuration not stated),survivor count,"dose: 15.0 mg/kg/injection, schedule: Q01DX009 (ip), vehicle: Klucel (hydroxypropylcellulose) (HPC)",6 of 6
same,survivor count,"dose: 30.0 mg/kg/injection, schedule: Q01DX009 (ip), vehicle: Klucel (hydroxypropylcellulose) (HPC)",5 of 6
same,survivor count,"dose: 60.0 mg/kg/injection, schedule: Q01DX009 (ip), vehicle: Klucel (hydroxypropylcellulose) (HPC)",1 of 6
same,survivor count,"dose: 120.0 mg/kg/injection, schedule: Q01DX009 (ip), vehicle: Klucel (hydroxypropylcellulose) (HPC)",0 of 6
C=C1C(=O)OC2CC3(C)C=CC(=O)C(=C)C3CC12 (configuration not stated),survivor count,"dose: 50.0 mg/kg/injection, schedule: Q04DX003 (ip), vehicle: Klucel (hydroxypropylcellulose) (HPC)",4 of 6
same,survivor count,"dose: 100.0 mg/kg/injection, schedule: Q04DX003 (ip), vehicle: Klucel (hydroxypropylcellulose) (HPC)",0 of 6
same,survivor count,"dose: 200.0 mg/kg/injection, schedule: Q04DX003 (ip), vehicle: Klucel (hydroxypropylcellulose) (HPC)",0 of 6
same,survivor count,"dose: 400.0 mg/kg/injection, schedule: Q04DX003 (ip), vehicle: Klucel (hydroxypropylcellulose) (HPC)",0 of 6
C1CN2CCN3CCCN(CCN(C1)C2)C3,survivor count,"dose: 50.0 mg/kg/injection, schedule: Q01DX005 (ip), vehicle: saline",1 of 6
same,survivor count,[1],0 of 6
same,survivor count,[2],0 of 6
CCC(CC)N(C)C(C)(C)CO,survivor count,"dose: 200.0 mg/kg/injection, schedule: Q04DX003 (ip), vehicle: saline sonified",1 of 6
Cc1ccc2nc(NC(=O)OCc3ccccc3)sc2c1,survivor count,[8],6 of 6
same,survivor count,[3],6 of 6
same,survivor count,[4],4 of 6
same,survivor count,[5],0 of 6
O=C1c2cccnc2-c2ncccc21,survivor count,[7],3 of 6
CC(=O)[OH+]c1c(I)cc(I)cc1C(=O)[O-].CC(=O)[OH+]c1c(I)cc(I)cc1C(=O)[O-].[Cu+2],survivor count,"dose: 120.0 mg/kg/injection, schedule: Q01DX005 (ip), vehicle: saline",2 of 6
same,survivor count,"dose: 240.0 mg/kg/injection, schedule: Q01DX005 (ip), vehicle: saline",0 of 6
CC(C)(C)CC(C)(C)NCC(O)COc1ccc(C(C)(C)c2ccc(OCC(O)CNC(C)(C)CC(C)(C)C)cc2)cc1 (configuration not stated),survivor count,"dose: 12.5 mg/kg/injection, schedule: Q01DX009 (ip), vehicle: other",5 of 6
same,survivor count,"dose: 12.5 mg/kg/injection, schedule: Q04DX003 (ip), vehicle: other",6 of 6
same,survivor count,"dose: 25.0 mg/kg/injection, schedule: Q01DX009 (ip), vehicle: other",2 of 6
same,survivor count,"dose: 25.0 mg/kg/injection, schedule: Q04DX003 (ip), vehicle: other",6 of 6
same,survivor count,"dose: 50.0 mg/kg/injection, schedule: Q04DX003 (ip), vehicle: other",3 of 6
COc1ccc(C(=O)OC2(C)CC(C)(C)N=[N+]2[O-])cc1 (configuration not stated),T/C,"dose: 100.0 mg/kg/injection, schedule: Q01DX009 (ip), vehicle: other",125 % of control
CC(C)[CH2][Sn]1([CH2]C(C)C)[O]CCNCC[O]1,survivor count,"dose: 6.25 mg/kg/injection, schedule: Q01DX009 (ip), vehicle: suspension in saline",6 of 6
same,survivor count,"dose: 12.5 mg/kg/injection, schedule: Q01DX009 (ip), vehicle: suspension in saline",3 of 6
same,survivor count,"dose: 25.0 mg/kg/injection, schedule: Q01DX009 (ip), vehicle: suspension in saline",0 of 6
same,survivor count,[9],0 of 6
same,survivor count,[10],0 of 6
same,survivor count,[11],0 of 6
O=C(O)c1c[nH]c2cc([N+](=O)[O-])ccc2c1=O,survivor count,[10],2 of 6
same,survivor count,[11],2 of 6
Cc1nnc(NS(=O)(=O)c2ccc(N=Nc3cc(N=Nc4ccc(S(=O)(=O)Nc5nnc(C)s5)cc4)c4c(NC(=O)C(Cl)Cl)cccc4c3OC(=O)C(Cl)Cl)cc2)s1 (tested in a mixture with another compound),T/C,"dose: 12.5 mg/kg/injection, schedule: Q01DX009 (ip), vehicle: saline with Tween-80",129 % of control
same,T/C,[8],132 % of control
same,T/C,"dose: 25.0 mg/kg/injection, schedule: Q01DX009 (ip), vehicle: saline with Tween-80",138 % of control
same,survivor count,"dose: 50.0 mg/kg/injection, schedule: Q01DX009 (ip), vehicle: saline with Tween-80",6 of 6
same,survivor count,"dose: 100.0 mg/kg/injection, schedule: Q01DX009 (ip), vehicle: saline with Tween-80",4 of 6
same,survivor count,"dose: 200.0 mg/kg/injection, schedule: Q01DX009 (ip), vehicle: saline with Tween-80",3 of 6
CC(=O)NC(Cc1cnc[nH]1)C(C)=O (configuration not stated),survivor count,[9],0 of 6
same,survivor count,[10],0 of 6
same,survivor count,[11],0 of 6
NC(=O)NC(=O)C(Cc1ccc(Cl)cc1)c1ccccc1 (configuration not stated),survivor count,"dose: 60.0 mg/kg/injection, schedule: Q01DX005 (ip), vehicle: saline with Tween-80",6 of 6
same,survivor count,[6],6 of 6
